## Results from one PubChem assay

By UniProt entry, the sequences of proteins in these tests, tags left out. Residues count along the entry.
UniProt P02791, 2-175 limits assumed, target on record: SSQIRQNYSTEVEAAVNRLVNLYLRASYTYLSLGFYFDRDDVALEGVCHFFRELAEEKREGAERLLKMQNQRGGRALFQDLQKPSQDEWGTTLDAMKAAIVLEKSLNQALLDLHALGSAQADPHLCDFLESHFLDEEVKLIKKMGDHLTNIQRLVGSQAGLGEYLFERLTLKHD

From PubChem BioAssay record AID2323 (NCATS, 2010).

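A displacement test on horse apoferritin: compounds compete with a fluorescent probe for the anesthetic pocket, and the drop in probe fluorescence is measured 10 minutes later.
Each compound was tested as a dilution series of about 7 points, from roughly 0.025 to 77 µM.
Potency is the fitted half-maximal concentration (AC50) for probe displacement; a lower value means stronger binding at the anesthetic site.
Each call comes from the curve class and fitted AC50, converted to a score; a score of 1–39 is filed inconclusive, which applies to all of these rows, whether the curve is partial or full.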

Values are in µM.
Every entry below has the call inconclusive.
Only part of the assay is shown, chiefly results filed as inconclusive.
Potencies fitted to partial, single-point or poorly fitting curves are rough.
Some entries filed as inconclusive have a full curve.
Activity scores are not listed here.

SMILES	potency (µM)	remark
O=C(CCCN1CCC(O)(c2cccc(C(F)(F)F)c2)CC1)c1ccc(F)cc1	22.39	inhibitor, partial curve
C[N+]1(C)C2CCC1CC(OC(=O)c1c[nH]c3ccccc13)C2 (stereo not shown)	22.39	inhibitor, full curve
O=Nc1c(-c2c(O)[nH]c3cc(Br)ccc23)[nH]c2ccccc12	7.943	inhibitor, full curve
CC(=O)[C@H]1CC[C@H]2[C@@H]3CCC4=CC(=O)CC[C@]4(C)[C@H]3CC[C@]12C	35.48	inhibitor, partial curve
OC(CN1CCC(Cc2ccc(F)cc2)CC1)c1ccc(Cl)cc1 (stereo not shown)	14.13	inhibitor, full curve
CC(C)(C=O)Cc1cc(C(C)(C)C)c(O)c(C(C)(C)C)c1	11.22	inhibitor, full curve
CN(C)CCCN1c2ccccc2CCc2ccc(Cl)cc21	25.12	inhibitor, partial curve
Cc1cc(O)c2c(c1)C(=O)c1cc(O)cc(O)c1C2=O	39.81	inhibitor, partial curve
CCc1cccc(N(C)C(N)=Nc2cccc3ccccc23)c1	39.81	inhibitor, partial curve
O=Nc1c(-c2c(O)[nH]c3ccccc23)[nH]c2ccccc12	25.12	inhibitor, partial curve
COc1ccc2c(c1)c(CC(=O)N1CCOCC1)c(C)n2C(=O)c1ccc(Cl)cc1	35.48	inhibitor, partial curve
CC(C)C1NC(=O)[C@H](CCCCN)NC(=O)[C@@H](Cc2c[nH]c3ccccc23)NC(=O)[C@H](Cc2ccc(O)cc2)NC(=O)[C@H](C)N(C)C(=O)[C@H](Cc2ccccc2)NC1=O (stereo partly shown)	14.13	inhibitor, partial curve
O=c1c(-c2ccc(O)cc2)coc2cc(O)cc(O)c12	39.81	inhibitor, partial curve
CCCCCCCCCCCCCCCC(=O)NCC(COP(=O)([O-])OCC[N+](C)(C)C)OCC (stereo not shown)	12.59	inhibitor, full curve
Clc1ccc(C(c2ccc(Cl)cc2)n2cc[n+](CC(OCc3ccc(Cl)cc3Cl)c3ccc(Cl)cc3Cl)c2)cc1 (stereo not shown)	8.912	inhibitor, full curve
CC(C)COC(=O)OCN1C(=O)CN(CCN2CC(=O)N(COC(=O)OCC(C)C)C(=O)C2)CC1=O	39.81	inhibitor, partial curve
Clc1ccc2c(c1)C(N1CCNCC1)=Nc1ccccc1O2	39.81	inhibitor, partial curve
N#C/C(=C\c1ccc(O)c(O)c1)C(=O)c1ccc(O)c(O)c1	35.48	inhibitor, partial curve
CC(C)(C)c1cc(C=C(C#N)C#N)cc(C(C)(C)C)c1O	22.39	inhibitor, full curve
O=c1[nH]c2ccccc2n1CCCN1CCN(C(c2ccccc2)c2ccccc2)CC1	25.12	inhibitor, partial curve
O=C(Nc1ccccc1)c1cc([N+](=O)[O-])ccc1Cl	31.62	inhibitor, partial curve
O=C1N=C(O)CN1/N=C/c1ccc(-c2ccc([N+](=O)[O-])cc2)o1	44.67	inhibitor, partial curve
CC(=O)c1c(O)c(C)c(O)c(Cc2c(O)c3c(c(C(=O)/C=C/c4ccccc4)c2O)OC(C)(C)C=C3)c1O	28.18	inhibitor, partial curve
O=Nc1ccc2oc(=O)ccc2c1	35.48	inhibitor, partial curve
CCCCCCCC/C=C\CCCCCCCC(=O)NCCO	17.78	inhibitor, full curve
Oc1cc2c(cc1O)CN(C(=S)NCCc1ccc(Cl)cc1)CCC2	28.18	inhibitor, partial curve
COC(=O)C1=C(C)NC(C)=C(C(=O)OCCN(C)Cc2ccccc2)C1c1cccc([N+](=O)[O-])c1 (stereo not shown)	15.85	inhibitor, partial curve
CN1CCN(C2Cc3ccccc3Sc3ccc(Cl)cc32)CC1 (stereo not shown)	12.59	inhibitor, partial curve
COC(=O)c1c(C)[nH]c(C)c1C(=O)c1ccccc1Cc1ccccc1	25.12	inhibitor, partial curve
NC(N)=NC(=O)c1nc(Cl)c(N2CCCCCC2)nc1N	25.12	inhibitor, partial curve
Brc1c(Br)c(Br)c2n[nH]nc2c1Br	44.67	inhibitor, partial curve
CNCCC(Oc1ccc(C(F)(F)F)cc1)c1ccccc1 (stereo not shown)	28.18	inhibitor, partial curve
CCCCCCCCCCCCCCSCC(=O)O	19.95	inhibitor, partial curve
CCCCc1oc2ccccc2c1C(=O)c1cc(I)c(OCCN(CC)CC)c(I)c1	8.912	inhibitor, full curve
Cn1cc(C2=C(c3ccc(Cl)cc3Cl)C(=O)NC2=O)c2ccccc21	5.012	inhibitor, partial curve
CCS(=O)(=O)Nc1cccc(C(=C2CCCCC2)c2cnc[nH]2)c1	35.48	inhibitor, partial curve
NC[C@@H]1O[C@H](C23CC4CC(CC(C4)C2)C3)Cc2c1ccc(O)c2O	15.85	inhibitor, partial curve
C[C@@H](Oc1ccc(Oc2cnc3ccc(Cl)cc3n2)cc1)C(=O)O	28.18	inhibitor, full curve, poor fit
C=Cc1c(C)c2cc3[nH]c(cc4nc(cc5nc(cc1[nH]2)C(C)=C5CCC(=O)O)C(CCC(=O)O)=C4C)c(C)c3C=C	31.62	inhibitor, partial curve
CCSC(N)=Nc1ccc(C(F)(F)F)cc1	28.18	inhibitor, partial curve
O=C(O)c1cc([N+](=O)[O-])ccc1NCCCc1ccccc1	39.81	inhibitor, partial curve
CNCC[C@H](Oc1ccc(C(F)(F)F)cc1)c1ccccc1	25.12	inhibitor, partial curve

5 of the entries, repeated:

* NC(N)=NC(=O)c1nc(Cl)c(N2CCCCCC2)nc1N | potency 25.12 µM (inhibitor, partial curve)
* C[N+]1(C)C2CCC1CC(OC(=O)c1c[nH]c3ccccc13)C2 (stereo not shown) | potency 22.39 µM (inhibitor, full curve)
* O=C(CCCN1CCC(O)(c2cccc(C(F)(F)F)c2)CC1)c1ccc(F)cc1 | potency 22.39 µM (inhibitor, partial curve)
* CNCCC(Oc1ccc(C(F)(F)F)cc1)c1ccccc1 (stereo not shown) | potency 28.18 µM (inhibitor, partial curve)
* CC(=O)c1c(O)c(C)c(O)c(Cc2c(O)c3c(c(C(=O)/C=C/c4ccccc4)c2O)OC(C)(C)C=C3)c1O | potency 28.18 µM (inhibitor, partial curve)